PubChem BioAssay AID743454, Peter MacCallum Cancer Centre – 2014

Screen: 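Search for knock-downs that restore vorinostat killing in resistant colon cancer cells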 (primary screen)
Cells: human HCT116-VR colon cancer cells, selected for vorinostat resistance
Knock-down reagent: siRNA pool against human genes, 40 nM siRNA pool
Timing: vorinostat for 24 h, read-out about 72 h after transfection
Treatment: vorinostat at 2.5 µM final
Read-out: 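Cell viability by CellTiter-Fluor and caspase 3/7 activity by luminescence, each scaled to mock wells per plate, duplicates averaged, then robust z-scored over all plates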
Reading the numbers: viability robust z-score: higher = more viable cells than screen typical; caspase robust z-score: higher = more caspase 3/7 activity than screen typical
Hit rule: 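a knock-down is a hit when classed RV1 or RV2 for lowered viability, or CA1 or CA2 for caspase activation; those lethal without drug were dropped; hits were retested singly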
Shown is one part, drawn at random, of about 18,000 reagents. In the full data, 450 (2.5%) are marked active. 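Single biological run; no consistent viability z cut-off exists, so the class columns, not z-scores, define the calls.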 A number with no mark means an inactive call.

target	viability hit class	caspase hit class	viability robust z-score	caspase robust z-score
USH1C (USH1 protein network component harmonin)	no change	no change	0.9	-0.36
MZT2A (mitotic spindle organizing protein 2A)	no change	no change	-0.4	1.15
HMCES (5-hydroxymethylcytosine binding, ES cell specific)	no change	no change	0.16	2.08
HIPK4 (homeodomain interacting protein kinase 4)	no change	no change	-0.55	1.12
UXS1 (UDP-glucuronate decarboxylase 1)	no change	no change	-0.3	0.93
IKZF5 (IKAROS family zinc finger 5)	no change	no change	0.04	1.43
NLRP5 (NLR family pyrin domain containing 5)	no change	no change	0.07	-0.78
ACER2 (alkaline ceramidase 2)	no change	no change	-0.14	5.03
RASGRP3 (RAS guanyl releasing protein 3)	no change	no change	0.03	-0.76
DGUOK (deoxyguanosine kinase)	no change	no change	-1.25	-1.14

Reprinted from above for reference:
target	viability hit class	caspase hit class	viability robust z-score	caspase robust z-score
MZT2A (mitotic spindle organizing protein 2A)	no change	no change	-0.4	1.15
HMCES (5-hydroxymethylcytosine binding, ES cell specific)	no change	no change	0.16	2.08
HIPK4 (homeodomain interacting protein kinase 4)	no change	no change	-0.55	1.12
UXS1 (UDP-glucuronate decarboxylase 1)	no change	no change	-0.3	0.93

Further results follow.
target	viability hit class	caspase hit class	viability robust z-score	caspase robust z-score
CERT1 (ceramide transporter 1)	no change	no change	-0.6	1.86
SPTBN5 (spectrin beta, non-erythrocytic 5)	no change	no change	-0.57	-0.2
C3orf22 (chromosome 3 open reading frame 22)	no change	no change	-0.72	0.54
SMYD1 (SET and MYND domain containing 1)	no change	no change	-0.84	-0.18
CCDC157 (coiled-coil domain containing 157)	no change	no change	-1.54	4.04
GREM1 (gremlin 1, DAN family BMP antagonist)	no change	no change	-1.19	-0.17
FAM227B (family with sequence similarity 227 member B)	no change	no change	0.44	-0.45
MED10 (mediator complex subunit 10)	no change	no change	-1.47	-0.52
PSMA2 (proteasome 20S subunit alpha 2)	no change	no change	-3.31	2.05
PRLH (prolactin releasing hormone)	no change	no change	-0.34	1.3
SMIM43 (small integral membrane protein 43)	no change	no change	-0.78	3.82
CCL4 (C-C motif chemokine ligand 4)	no change	no change	-0.86	2.56
SLC2A9	no change	no change	-0.53	-0.24
